Laboratory results taken from the supplement of paper PMC10849652.
This is one part of the list.

Protein sequences, listed by entry. Tags and fused reporters are not part of them. Lines headed by an entry give the natural chain unless they say otherwise; changes in a name come on top.
UniProt Q14CW9: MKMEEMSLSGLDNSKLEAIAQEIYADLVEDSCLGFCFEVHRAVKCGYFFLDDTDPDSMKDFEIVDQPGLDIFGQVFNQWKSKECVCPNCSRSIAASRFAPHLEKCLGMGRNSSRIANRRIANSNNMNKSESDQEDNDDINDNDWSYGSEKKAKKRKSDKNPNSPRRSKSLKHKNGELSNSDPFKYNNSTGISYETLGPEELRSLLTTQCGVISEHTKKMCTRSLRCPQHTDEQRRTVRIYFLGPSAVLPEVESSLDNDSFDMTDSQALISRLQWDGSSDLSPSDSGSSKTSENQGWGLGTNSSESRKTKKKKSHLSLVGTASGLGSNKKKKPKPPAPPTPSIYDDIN
UniProt Q8WWM7: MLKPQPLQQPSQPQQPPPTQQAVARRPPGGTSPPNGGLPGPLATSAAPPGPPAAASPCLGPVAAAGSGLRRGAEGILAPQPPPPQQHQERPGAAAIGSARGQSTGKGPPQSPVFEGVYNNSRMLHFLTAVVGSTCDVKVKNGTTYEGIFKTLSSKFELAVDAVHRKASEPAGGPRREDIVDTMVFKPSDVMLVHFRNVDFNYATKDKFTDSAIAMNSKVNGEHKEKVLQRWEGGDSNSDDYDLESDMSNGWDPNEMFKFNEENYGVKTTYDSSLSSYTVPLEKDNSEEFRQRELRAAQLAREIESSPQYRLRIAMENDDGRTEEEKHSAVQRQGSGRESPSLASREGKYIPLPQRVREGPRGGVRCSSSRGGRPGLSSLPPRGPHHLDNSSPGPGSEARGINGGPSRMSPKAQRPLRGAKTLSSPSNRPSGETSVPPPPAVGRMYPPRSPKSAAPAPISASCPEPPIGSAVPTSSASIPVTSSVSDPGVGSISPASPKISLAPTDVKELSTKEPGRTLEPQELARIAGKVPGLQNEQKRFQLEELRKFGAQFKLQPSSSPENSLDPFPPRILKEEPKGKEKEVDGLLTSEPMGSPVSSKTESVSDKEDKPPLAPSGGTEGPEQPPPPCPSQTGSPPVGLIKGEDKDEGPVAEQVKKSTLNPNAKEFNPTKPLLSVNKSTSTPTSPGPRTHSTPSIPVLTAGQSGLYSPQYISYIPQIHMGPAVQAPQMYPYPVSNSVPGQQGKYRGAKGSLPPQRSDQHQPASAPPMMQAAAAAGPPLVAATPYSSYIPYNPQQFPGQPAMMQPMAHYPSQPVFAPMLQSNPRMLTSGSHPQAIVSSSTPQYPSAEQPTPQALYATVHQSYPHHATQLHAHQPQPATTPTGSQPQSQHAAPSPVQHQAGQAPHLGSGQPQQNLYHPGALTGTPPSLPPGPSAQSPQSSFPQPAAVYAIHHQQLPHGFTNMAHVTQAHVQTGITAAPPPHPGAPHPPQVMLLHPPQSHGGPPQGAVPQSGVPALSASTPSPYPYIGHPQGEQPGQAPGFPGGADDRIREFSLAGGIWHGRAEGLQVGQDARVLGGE
UniProt P56945: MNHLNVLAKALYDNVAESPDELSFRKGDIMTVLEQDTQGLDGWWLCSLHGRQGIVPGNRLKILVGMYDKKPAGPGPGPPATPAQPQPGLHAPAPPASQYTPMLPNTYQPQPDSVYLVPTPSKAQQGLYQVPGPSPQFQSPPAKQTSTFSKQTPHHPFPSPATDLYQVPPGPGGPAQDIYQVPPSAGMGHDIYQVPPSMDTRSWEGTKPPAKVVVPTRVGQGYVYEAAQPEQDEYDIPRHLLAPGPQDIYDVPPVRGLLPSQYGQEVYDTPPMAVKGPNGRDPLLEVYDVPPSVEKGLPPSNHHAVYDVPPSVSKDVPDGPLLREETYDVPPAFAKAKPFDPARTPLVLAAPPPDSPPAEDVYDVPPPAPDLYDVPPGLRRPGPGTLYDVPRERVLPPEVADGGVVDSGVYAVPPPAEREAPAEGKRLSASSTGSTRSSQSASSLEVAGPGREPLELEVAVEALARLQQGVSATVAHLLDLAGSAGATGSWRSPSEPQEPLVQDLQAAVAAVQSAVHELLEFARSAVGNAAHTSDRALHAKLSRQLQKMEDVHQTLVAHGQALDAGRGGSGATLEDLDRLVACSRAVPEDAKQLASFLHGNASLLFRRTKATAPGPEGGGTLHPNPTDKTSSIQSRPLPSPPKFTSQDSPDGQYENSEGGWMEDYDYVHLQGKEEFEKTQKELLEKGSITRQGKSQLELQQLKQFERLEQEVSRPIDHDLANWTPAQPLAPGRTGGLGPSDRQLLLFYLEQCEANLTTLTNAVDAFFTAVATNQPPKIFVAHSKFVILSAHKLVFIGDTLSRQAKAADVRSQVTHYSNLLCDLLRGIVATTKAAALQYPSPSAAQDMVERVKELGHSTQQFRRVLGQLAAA
UniProt P54252: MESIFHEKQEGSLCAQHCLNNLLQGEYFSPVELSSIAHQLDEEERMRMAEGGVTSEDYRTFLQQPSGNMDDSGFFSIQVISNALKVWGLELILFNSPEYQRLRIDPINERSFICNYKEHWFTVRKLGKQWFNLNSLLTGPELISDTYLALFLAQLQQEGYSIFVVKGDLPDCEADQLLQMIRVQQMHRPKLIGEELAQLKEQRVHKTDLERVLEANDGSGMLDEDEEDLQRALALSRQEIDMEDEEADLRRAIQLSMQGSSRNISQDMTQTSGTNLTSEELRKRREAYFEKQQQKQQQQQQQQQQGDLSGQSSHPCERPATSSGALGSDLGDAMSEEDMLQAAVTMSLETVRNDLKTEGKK
UniProt P38398, whole entry, looked up: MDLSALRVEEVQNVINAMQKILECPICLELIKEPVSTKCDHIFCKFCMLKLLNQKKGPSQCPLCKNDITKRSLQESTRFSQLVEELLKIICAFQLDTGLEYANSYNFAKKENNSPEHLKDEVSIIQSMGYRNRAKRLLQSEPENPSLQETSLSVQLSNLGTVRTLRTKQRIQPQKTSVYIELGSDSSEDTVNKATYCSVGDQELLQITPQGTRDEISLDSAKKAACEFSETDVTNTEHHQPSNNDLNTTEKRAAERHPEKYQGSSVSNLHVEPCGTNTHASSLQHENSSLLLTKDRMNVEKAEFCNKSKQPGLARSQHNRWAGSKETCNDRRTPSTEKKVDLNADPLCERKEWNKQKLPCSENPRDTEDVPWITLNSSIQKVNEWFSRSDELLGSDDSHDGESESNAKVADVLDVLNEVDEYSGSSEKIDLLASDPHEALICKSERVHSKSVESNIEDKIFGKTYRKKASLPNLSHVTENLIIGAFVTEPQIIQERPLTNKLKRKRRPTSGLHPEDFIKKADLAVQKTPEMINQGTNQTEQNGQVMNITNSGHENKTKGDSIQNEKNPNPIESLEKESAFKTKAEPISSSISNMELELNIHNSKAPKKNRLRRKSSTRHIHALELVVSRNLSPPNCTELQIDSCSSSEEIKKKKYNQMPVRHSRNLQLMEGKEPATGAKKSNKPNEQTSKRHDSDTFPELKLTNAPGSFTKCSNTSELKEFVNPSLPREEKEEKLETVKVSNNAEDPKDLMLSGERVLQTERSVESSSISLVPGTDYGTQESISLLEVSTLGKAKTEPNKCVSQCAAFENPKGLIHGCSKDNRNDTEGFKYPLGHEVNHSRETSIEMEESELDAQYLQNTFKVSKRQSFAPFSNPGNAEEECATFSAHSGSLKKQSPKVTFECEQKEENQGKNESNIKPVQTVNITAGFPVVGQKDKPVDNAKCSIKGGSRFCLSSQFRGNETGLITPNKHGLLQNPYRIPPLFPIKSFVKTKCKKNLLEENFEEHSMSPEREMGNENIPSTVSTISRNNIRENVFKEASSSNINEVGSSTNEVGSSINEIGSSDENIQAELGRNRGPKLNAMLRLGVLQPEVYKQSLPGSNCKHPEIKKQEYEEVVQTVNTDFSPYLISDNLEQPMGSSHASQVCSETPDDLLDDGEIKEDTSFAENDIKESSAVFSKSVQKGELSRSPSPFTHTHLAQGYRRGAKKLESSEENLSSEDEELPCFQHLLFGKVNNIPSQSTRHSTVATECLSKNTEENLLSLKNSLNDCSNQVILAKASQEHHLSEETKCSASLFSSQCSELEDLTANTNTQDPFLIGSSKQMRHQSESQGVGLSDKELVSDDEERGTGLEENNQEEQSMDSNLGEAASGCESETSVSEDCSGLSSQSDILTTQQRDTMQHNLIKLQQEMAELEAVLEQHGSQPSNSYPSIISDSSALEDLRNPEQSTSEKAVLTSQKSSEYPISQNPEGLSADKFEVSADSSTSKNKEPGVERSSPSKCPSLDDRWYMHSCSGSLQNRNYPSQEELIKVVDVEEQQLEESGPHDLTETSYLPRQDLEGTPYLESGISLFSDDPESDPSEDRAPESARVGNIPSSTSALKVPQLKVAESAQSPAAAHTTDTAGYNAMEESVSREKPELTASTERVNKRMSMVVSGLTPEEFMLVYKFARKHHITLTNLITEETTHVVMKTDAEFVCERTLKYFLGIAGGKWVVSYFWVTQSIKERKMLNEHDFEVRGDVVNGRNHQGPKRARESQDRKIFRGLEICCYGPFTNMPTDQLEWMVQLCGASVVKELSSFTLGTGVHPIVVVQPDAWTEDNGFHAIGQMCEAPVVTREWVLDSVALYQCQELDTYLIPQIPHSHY
UniProt Q9H6U6: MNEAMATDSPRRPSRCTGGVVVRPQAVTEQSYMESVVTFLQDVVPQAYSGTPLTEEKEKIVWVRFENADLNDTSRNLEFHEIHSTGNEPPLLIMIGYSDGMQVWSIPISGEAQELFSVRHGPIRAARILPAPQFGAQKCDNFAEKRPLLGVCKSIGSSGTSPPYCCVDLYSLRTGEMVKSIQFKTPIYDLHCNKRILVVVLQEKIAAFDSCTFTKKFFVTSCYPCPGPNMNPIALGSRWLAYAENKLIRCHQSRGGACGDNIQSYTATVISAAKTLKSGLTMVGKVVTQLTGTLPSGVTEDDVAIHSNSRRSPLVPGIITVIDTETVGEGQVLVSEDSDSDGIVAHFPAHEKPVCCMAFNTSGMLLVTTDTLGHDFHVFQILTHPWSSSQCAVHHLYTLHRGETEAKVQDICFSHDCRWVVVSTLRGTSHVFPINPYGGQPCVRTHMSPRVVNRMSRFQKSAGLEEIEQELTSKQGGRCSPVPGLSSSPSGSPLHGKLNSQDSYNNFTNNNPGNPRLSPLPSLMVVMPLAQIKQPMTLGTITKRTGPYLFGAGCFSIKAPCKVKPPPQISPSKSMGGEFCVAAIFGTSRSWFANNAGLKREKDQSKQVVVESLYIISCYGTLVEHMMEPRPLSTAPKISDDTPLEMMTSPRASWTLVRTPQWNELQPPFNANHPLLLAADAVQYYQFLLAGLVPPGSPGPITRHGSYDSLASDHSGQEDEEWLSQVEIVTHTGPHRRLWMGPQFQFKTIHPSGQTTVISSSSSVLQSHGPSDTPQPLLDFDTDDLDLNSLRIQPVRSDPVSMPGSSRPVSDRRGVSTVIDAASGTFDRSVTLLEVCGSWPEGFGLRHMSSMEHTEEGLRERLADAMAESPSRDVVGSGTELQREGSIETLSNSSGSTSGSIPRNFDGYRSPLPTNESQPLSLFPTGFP
UniProt O60238, whole entry, looked up: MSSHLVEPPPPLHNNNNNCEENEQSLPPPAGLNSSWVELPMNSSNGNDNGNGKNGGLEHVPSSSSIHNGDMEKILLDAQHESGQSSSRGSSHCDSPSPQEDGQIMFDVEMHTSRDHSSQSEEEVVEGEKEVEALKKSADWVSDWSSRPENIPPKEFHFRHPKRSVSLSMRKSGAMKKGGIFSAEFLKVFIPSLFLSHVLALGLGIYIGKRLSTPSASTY
UniProt O15392, whole entry, looked up: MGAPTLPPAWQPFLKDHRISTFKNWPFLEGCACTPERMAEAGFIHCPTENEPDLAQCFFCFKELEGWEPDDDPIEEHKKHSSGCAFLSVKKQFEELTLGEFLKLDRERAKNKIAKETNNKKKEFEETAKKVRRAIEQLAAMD
UniProt Q9NY97: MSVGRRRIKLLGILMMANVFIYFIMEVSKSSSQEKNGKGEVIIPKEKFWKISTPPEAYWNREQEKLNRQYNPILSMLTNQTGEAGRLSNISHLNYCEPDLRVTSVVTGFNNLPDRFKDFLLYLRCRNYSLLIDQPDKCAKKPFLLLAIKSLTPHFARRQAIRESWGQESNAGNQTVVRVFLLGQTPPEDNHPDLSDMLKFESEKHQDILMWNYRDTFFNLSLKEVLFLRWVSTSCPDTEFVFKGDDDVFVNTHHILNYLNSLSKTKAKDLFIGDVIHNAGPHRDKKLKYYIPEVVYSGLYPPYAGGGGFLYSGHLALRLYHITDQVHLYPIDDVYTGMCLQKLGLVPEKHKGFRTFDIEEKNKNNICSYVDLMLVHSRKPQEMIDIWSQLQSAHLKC
UniProt Q13825: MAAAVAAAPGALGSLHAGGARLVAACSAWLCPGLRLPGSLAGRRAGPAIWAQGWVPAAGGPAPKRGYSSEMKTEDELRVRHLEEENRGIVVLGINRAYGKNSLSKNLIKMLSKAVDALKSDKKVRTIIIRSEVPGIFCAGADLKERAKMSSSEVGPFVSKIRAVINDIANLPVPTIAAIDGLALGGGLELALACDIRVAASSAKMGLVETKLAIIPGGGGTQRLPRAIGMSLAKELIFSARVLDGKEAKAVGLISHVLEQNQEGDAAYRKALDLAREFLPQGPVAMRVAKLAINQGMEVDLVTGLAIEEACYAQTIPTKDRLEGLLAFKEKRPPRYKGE

Assays:
Assay in all cases: log2 fold change, soluble protein after heating vs DMSO (PISA); higher = thermal stabilisation; K562 cells, 10 uM, 30 min; active = over 0.2 and 3.5 SD of the protein, either way, in both replicates (recomputed)
[1] = compound: COC1=CC=C(C=C1)CN2C=CC3=C2C=C(C=C3)C(=O)NO
Summary of the method: (§1)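 Values are thermal stability changes relative to control samples and are taken from duplicates. They are stated as log2 fold changes. Before quantification by TMTpro 16plex LC-MS/MS with equalised channel sums, K562 cells at 2×10^6 cells/mL were treated with 10 μM compound for 30 min, heated in aliquots for 3 min across 48°C-58°C, pooled, extracted in PBS with 0.5% NP-40 at 4°C, and centrifuged at 21,000xg for 90 min to give the soluble supernatant.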

[2] = compound: CO[C@H]1C[C@@H]2CC[C@@H](C)[C@@](O)(O2)C(=O)C(=O)N2CCCC[C@H]2C(=O)O[C@H]([C@H](C)C[C@@H]2CC[C@H](n3cnnn3)[C@H](OC)C2)CC(=O)[C@H](C)/C=C(\C)[C@@H](O)[C@@H](OC)C(=O)[C@H](C)C[C@H](C)/C=C/C=C/C=C/1C [zotarolimus]
Summary of the method: as §1

[3] = compound: COc1cc(C(=O)O)ccc1NC(=O)[C@@H]1N[C@@H](CC(C)(C)C)[C@](C#N)(c2ccc(Cl)cc2F)[C@H]1c1cccc(Cl)c1F [idasanutlin]
Summary of the method: as §1

[4] = compound: COc1cc2nc(-c3cc(F)ccc3O)nc(N[C@@H]3CNC[C@H]3C(C)(C)O)c2cc1OC
Summary of the method: as §1

[5] = compound: COc1cc2ncnc(Nc3ccc(F)c(Cl)c3)c2cc1OCCCN1CCOCC1 [gefitinib]
Summary of the method: as §1

[6] = compound: CS(=O)(=O)CCNCc1ccc(-c2ccc3ncnc(Nc4ccc(OCc5cccc(F)c5)c(Cl)c4)c3c2)o1 [lapatinib]
Summary of the method: as §1

[7] = compound: CS(=O)(=O)N1CCN(Cc2cc3nc(-c4cccc5[nH]ncc45)nc(N4CCOCC4)c3s2)CC1 [pictilisib]
Summary of the method: as §1

[8] = compound: CON(C)C(=O)N1N=C(c2cc(F)ccc2F)S[C@@]1(CCCN)c1ccccc1 [filanesib]
Summary of the method: as §1

[9] = compound: COc1cc(Nc2ncc3c(n2)-c2ccc(Cl)cc2C(c2c(F)cccc2OC)=NC3)ccc1C(=O)O [alisertib]
Summary of the method: as §1

[10] = compound: COc1cccc2cc(-c3nc([C@H]4CC[C@H](C(=O)O)CC4)n4ncnc(N)c34)[nH]c12
Summary of the method: as §1

Measured: log2 fold change

B4GAT1 (UniProt O43505)
inactive: [1] -0.021 | [2] -0.092 | [3] -0.157 | [4] 0.055 | [5] -0.001 | [6] 0.001 | [7] 0.068

BAZ1B (UniProt Q9UIG0)
inactive: [1] 0.054 | [8] 0.269 | [2] -0.172 | [9] 0.082 | [5] 0.008 | [10] -0.161 | [7] -0.291

BAD (UniProt Q92934)
inactive: [1] -0.103 | [8] 0.124 | [2] -0.073 | [3] -0.049 | [9] 0.103 | [4] -0.016 | [5] 0.115 | [10] 0.068 | [6] -0.037 | [7] 0.022

BMS1 (UniProt Q14692)
inactive: [1] -0.04 | [8] 0.182 | [2] 0.074 | [3] 0.128 | [9] -0.088 | [4] 0 | [5] -0.024 | [10] -0.145 | [6] 0.133 | [7] -0.086

ATXN7L3 isoform 2 (UniProt Q14CW9)
inactive: [1] -0.158 | [8] -0.02 | [3] 0.193 | [9] -0.191 | [5] 0.052 | [10] 0.035

BBC3 (UniProt Q9BXH1)
inactive: [1] -0.057 | [2] 0.03 | [3] 0.016 | [9] -0.015 | [4] -0.066 | [5] -0.012 | [10] 0.118 | [6] 0.011 | [7] 0.046

BOD1L1 (UniProt Q8NFC6)
inactive: [1] -0.019 | [8] 0.125 | [2] -0.016 | [3] 0.103 | [9] 0.034 | [4] 0.019 | [5] -0.012 | [10] -0.024 | [6] 0.023 | [7] -0.028

ATXN2L (UniProt Q8WWM7)
inactive: [1] -0.026 | [8] -0.009 | [2] -0.041 | [3] 0.033 | [9] -0.014 | [4] -0.056 | [5] -0.031 | [10] -0.01 | [6] 0.061 | [7] -0.007

BCAR1 isoform 6 (UniProt P56945)
inactive: [1] -0.072 | [8] -0.054 | [2] -0.04 | [3] 0.246 | [4] -0.153 | [6] -0.009 | [7] -0.039

ATXN3 isoform 1 (UniProt P54252)
inactive: [1] 0.023 | [2] -0.051 | [3] -0.114 | [9] -0.004 | [4] 0.106 | [5] -0.192 | [10] 0.297 | [6] -0.031 | [7] -0.036

BPHL (UniProt Q86WA6)
inactive: [1] -0.118 | [8] -0.018 | [2] 0.017 | [3] -0.007 | [9] 0.004 | [4] 0.081 | [5] 0.049 | [10] -0.056 | [6] -0.033 | [7] 0.033

BRCA1 isoform 7 (UniProt P38398)
inactive: [1] -0.382 | [8] 0.102 | [9] -0.088 | [4] 0.218 | [10] -0.15 | [6] 0.012

BLVRA (UniProt C9J1E1)
inactive: [1] -0.535 | [2] -0.02 | [3] 0.035 | [9] 0.846 | [4] 0.271 | [5] -0.058 | [10] 0.237 | [6] -0.357 | [7] 0.165

BCL9 (UniProt O00512)
inactive: [1] -0.054 | [8] 0.003 | [2] -0.153 | [3] 0.006 | [4] -0.048 | [6] 0.038 | [7] 0.084

BORCS7 (UniProt Q96B45)
inactive: [1] 0.068 | [2] 0.116 | [3] -0.028 | [9] -0.053 | [4] 0.008 | [5] 0.067 | [10] 0.03 | [6] 0 | [7] 0.132

BRD8 isoform 2 (UniProt Q9H0E9)
inactive: [1] -0.201 | [8] 0.042 | [2] 0.027 | [3] -0.027 | [4] -0.113 | [6] 0.019 | [7] 0.06

BPIFA1 (UniProt Q9NP55)
inactive: [1] 1.49 | [8] -0.213 | [9] 1.47 | [5] 1.39 | [10] -0.055

BRK1 isoform 2 (UniProt Q8WUW1)
inactive: [1] 0.113 | [8] 0.127 | [2] -0.049 | [3] 0.031 | [9] -0.076 | [4] -0.07 | [5] 0.05 | [10] -0.041 | [6] -0.032 | [7] 0.018

B4GALT7 (UniProt Q9UBV7)
inactive: [1] 0.109 | [8] 0.016 | [2] -0.033 | [3] -0.06 | [9] -0.11 | [4] 0.035 | [10] 0.076 | [6] 0.04 | [7] 0.124

BCAS3 isoform 8 (UniProt Q9H6U6)
inactive: [1] -0.051 | [2] 0.144 | [3] -0.006 | [4] 0.089 | [6] -0.039 | [7] -0.014

BNIP3L (UniProt O60238)
inactive: [1] -0.317 | [2] -0.012 | [9] -0.099 | [5] 0.157 | [10] 0.102

BLVRA (UniProt P53004)
inactive: [1] -0.002 | [8] -0.097 | [2] 0.017 | [3] -0.127 | [9] -0.021 | [4] 0.025 | [5] -0.009 | [10] 0.085 | [6] -0.013 | [7] 0.027

BRIP1 (UniProt Q9BX63)
inactive: [1] 0.072 | [8] 0.098 | [2] 0.061 | [3] -0.14 | [4] 0.126 | [5] 0.047 | [6] 0.003 | [7] 0.067

AVL9 (UniProt Q8NBF6)
inactive: [1] 0.016 | [8] -0.108 | [2] 0.05 | [3] -0.068 | [9] -0.047 | [4] -0.085 | [5] -0.055 | [10] 0.065 | [6] 0.016 | [7] -0.033

BCR (UniProt P11274)
inactive: [1] -0.092 | [8] 0.644 | [2] 0.18 | [9] -0.176 | [4] -0.004 | [10] -0.172 | [6] -0.012 | [7] -0.466

BAX isoform 2 (UniProt Q07812)
inactive: [1] -0.031 | [8] 0.01 | [2] -0.007 | [3] 0.014 | [9] -0.055 | [4] -0.03 | [5] 0.012 | [10] 0.053 | [6] 0 | [7] -0.043

B3GNT5 (UniProt Q9BYG0)
inactive: [1] -0.028 | [8] -0.014 | [2] 0.016 | [9] -0.016 | [5] -0.006 | [10] 0.069

BIRC5 (UniProt O15392)
inactive: [1] -0.07 | [8] 0.031 | [2] -0.052 | [3] 0.314 | [4] -0.165 | [5] -0.144 | [6] -0.08

BCAT2 (UniProt O15382)
inactive: [1] 0.028 | [8] -0.003 | [2] -0.04 | [3] -0.019 | [9] -0.048 | [4] 0.028 | [5] 0.009 | [10] 0.05 | [6] -0.031 | [7] 0.014

B3GNT2 (UniProt Q9NY97)
inactive: [1] -0.014 | [8] 0.062 | [2] -0.011 | [3] 0.054 | [9] -0.087 | [4] -0.042 | [5] -0.093 | [10] 0.058 | [6] -0.033 | [7] 0.063

AUH (UniProt Q13825)
inactive: [1] -0.107 | [2] 0.009 | [3] -0.074 | [9] 0.175 | [4] -0.036 | [10] 0.034 | [6] 0.056 | [7] -0.071

BPTF (UniProt Q12830)
inactive: [1] -0.112 | [8] -0.01 | [5] -0.178

8 successive records already listed, quoted:
BCL9 (UniProt O00512)
inactive: [1] -0.054 | [8] 0.003 | [2] -0.153 | [3] 0.006 | [4] -0.048 | [6] 0.038 | [7] 0.084

BORCS7 (UniProt Q96B45)
inactive: [1] 0.068 | [2] 0.116 | [3] -0.028 | [9] -0.053 | [4] 0.008 | [5] 0.067 | [10] 0.03 | [6] 0 | [7] 0.132

BRD8 isoform 2 (UniProt Q9H0E9)
inactive: [1] -0.201 | [8] 0.042 | [2] 0.027 | [3] -0.027 | [4] -0.113 | [6] 0.019 | [7] 0.06

BPIFA1 (UniProt Q9NP55)
inactive: [1] 1.49 | [8] -0.213 | [9] 1.47 | [5] 1.39 | [10] -0.055

BRK1 isoform 2 (UniProt Q8WUW1)
inactive: [1] 0.113 | [8] 0.127 | [2] -0.049 | [3] 0.031 | [9] -0.076 | [4] -0.07 | [5] 0.05 | [10] -0.041 | [6] -0.032 | [7] 0.018

B4GALT7 (UniProt Q9UBV7)
inactive: [1] 0.109 | [8] 0.016 | [2] -0.033 | [3] -0.06 | [9] -0.11 | [4] 0.035 | [10] 0.076 | [6] 0.04 | [7] 0.124

BCAS3 isoform 8 (UniProt Q9H6U6)
inactive: [1] -0.051 | [2] 0.144 | [3] -0.006 | [4] 0.089 | [6] -0.039 | [7] -0.014

BNIP3L (UniProt O60238)
inactive: [1] -0.317 | [2] -0.012 | [9] -0.099 | [5] 0.157 | [10] 0.102
